# Patent publication US20250387458A1, “COACTIVE COMBINATIONS OF ANTIMICROBIALS WITH DISPERSINB” (KANE BIOTECH INC., priority 2020, published 2025)
# Counter-ions that a name gives are not always drawn. Positions of bridges follow the written chain, without caps; N, C: chain ends. Non-standard residues stand in square brackets, D forms with d. Residues, ends and D or L forms follow the SMILES beside them. ξ: configuration not given here. *: point of attachment. X1 = CC[C@H](C)CCCCC(=O)*; dDab = NCC[C@@H](N)C(=O)O; Dab = NCC[C@H](N)C(=O)O; ξDab = NCCC(N)C(=O)O
# Experiments:
# DspB [1] = test: Compatibility between antimicrobials or antibiotics and DspB in gel, enzymatic assay (Method 6); assay type: biochemical, Aggregatibacter actinomycetemcomitans; conditions: PF127 wound gel, 100 μg/mL DspB
# Method: Method 6: Method to Test Compatibility Between Antimicrobials or Antibiotics and DspB in Gel Using Enzymatic Assay
# DspB gel containing 200 μg/ml DspB, 16% […] (PF127), 50 mM Phosphate buffer or citrate, 100 mM NaCl, pH 5.9, and 2× concentrated antimicrobial agent/antibiotics in 16% Poloxamer 405, 50 mM Phosphate buffer, 100 mM NaCl, pH 5.9 were mixed in equal proportions. 4×5 μL aliquots were withdrawn at 0, 5, 10, 20, 30, 60, and 120 min for measurement of DspB enzymatic activity. DspB enzymatic activity was measured using β-N-acetylglucosaminidase assay kit from Sigma (product code CS0780) in 96-well microtiter plate following the manufacturer's instructions. The plate was incubated for 30 minutes before terminating the reaction. Data analysis was done in Excel. Student T test (paired) was performed for each time point separately using DspB activity in mixture and in control sample as two set of variables. […]
# DspB [2] = test: Compatibility between antimicrobials or antibiotics and DspB, enzymatic assay in buffer (Method 4); assay type: biochemical, Aggregatibacter actinomycetemcomitans; conditions: 100 μg/mL DspB, antimicrobial concentration per figure legend
# Method: Method 4: Method to Test Compatibility Between Antimicrobials or Antibiotics and DspB Using Enzymatic Assay
# DspB (200 μg/mL) and antimicrobial agent/antibiotic stocks were prepared in respective buffers. 10 mM paranitrophenol (PNP) in 400 mM sodium carbonate, and the buffer (same DspB stock) was used as the standard solution, and negative control, respectively. DspB stock and antimicrobial stock were mixed in equal proportions, and then 4×5 μl samples were taken at defined time points (0, 5, 10, 20, 30, 60, and 120 min) and used to measure the DspB enzyme activity. DspB enzymatic activity was measured using β-N-Acetylglucosaminidase assay kit from Sigma (product code CS0780) in 96-well microtiter plate following the manufacturer's instructions. The plate was incubated for 30 minutes before terminating the reaction. Data analysis was done in Excel. Student T test (paired) was performed for each time point separately using DspB activity in mixture and in control sample as two set of variables.
# S. epidermidis biofilm = test: Compatibility between antimicrobials or antibiotics and DspB, biofilm dispersal assay in buffer (Method 3); assay type: cell-based, Staphylococcus epidermidis; conditions: mixture stored at 37° C., 20 μg/ml DspB, antimicrobial concentration per figure legend
# Method: Method 3: Method to Test Compatibility Between Antimicrobials or Antibiotics and DspB Using Biofilm Dispersal Assay
# S. epidermidis biofilm was grown in 96-well plate and washed three times using sterile water to remove planktonic cells. Antimicrobials or antibiotics and DspB formulations were prepared in 50 mM phosphate or citrate buffer and stored at 37° C. for 2 h and used for treating biofilm at 0 and 2 h. Biofilm was treated using antimicrobials or antibiotics and DspB formulations for 10 min. After treatments, solutions were removed and washed 3 times to remove dispersed biofilm. Remaining biofilms in 96-well plates were stained using Crystal violet, unbound crystal violet was removed by washing the wells with sterile water, the biofilm bound crystal violet was eluted using 33% acetic acid, and the absorbance at 620 nm was taken using a microwell plate reader. Percent biofilm removal was calculated. Data was analyzed using ANOVA and Tukey's test.
Compound,"Time DspB was active in the presence of the antimicrobial, enzymatic assay (DspB [1])","Time DspB was active in the presence of the antimicrobial, enzymatic assay (DspB [2])","Time DspB retained its activity in the presence of the antimicrobial, biofilm dispersal assay (S. epidermidis biofilm)","Time DspB was active in the presence of the antimicrobial, enzymatic assay (DspB [1]; listed as polymyxin B sulfate)"
Cc1ccc(C(C)C)cc1O [Carvacrol],up to 2 h,up to 2 h,up to 2 h,
CO[C@H]1/C=C/O[C@@]2(C)Oc3c(C)c(O)c4c(O)c(c(/C=N/N5CCN(C)CC5)c(O)c4c3C2=O)NC(=O)/C(C)=C\C=C\[C@H](C)[C@H](O)[C@@H](C)[C@@H](O)[C@@H](C)[C@H](OC(C)=O)[C@@H]1C [rifampin],,up to 2 h,,
"CN[C@H](CC(C)C)C(=O)N[C@H]1C(=O)N[C@@H](CC(N)=O)C(=O)N[C@H]2C(=O)N[C@H]3C(=O)N[C@H](C(=O)N[C@H](C(=O)O)c4cc(O)cc(O)c4-c4cc3ccc4O)[C@H](O)c3ccc(c(Cl)c3)Oc3cc2cc(c3O[C@@H]2O[C@H](CO)[C@@H](O)[C@H](O)[C@H]2O[C@H]2C[C@](C)(N)[C@H](O)[C@H](C)O2)Oc2ccc(cc2Cl)[C@H]1O [Vancomycin, vancomycin]",,up to 2 h,,
CC[C@H](C)CCCCC(=O)N[C@@H](CCN)C(=O)N[C@H](C(=O)NC(CCN)C(=O)N[C@H]1CCNC(=O)[C@H]([C@@H](C)O)NC(=O)[C@H](CCN)NC(=O)[C@H](CCN)NC(=O)[C@H](CC(C)C)NC(=O)[C@@H](Cc2ccccc2)NC(=O)[C@@H](CCN)NC1=O)[C@@H](C)O (stereo partly drawn) [Polymyxin B sulfate] (X1-[Dab]T[ξDab][Dab][dDab][dF]L[Dab][Dab]T; lactam 4-C),≤ 2 h,up to 2 h,up to 2 h,up to 2 h
O=C/C=C/c1ccccc1 [Cinnamaldehyde],up to 2 h,up to 2 h,up to 2 h,
